{
  "source": "paper PMC12670160",
  "about": "“A drug-repurposing screen of FDA- and EMA-approved drugs identifies two NF-κB inhibitors active against eumycetoma” (Journal of Antimicrobial Chemotherapy, 2025)",
  "note": "Where a name gives a salt, the structure may show the parent alone. The campaign covered roughly 5,300 compounds. About 130 (2.5%) showed an effect of 50% or more. The list shows a part of the results.",
  "data": [
    {"tested_on": "M. mycetomatis strain mm55", "details": "primary screen, metabolic activity vs growth control; 96 h, 2 µM; inhibitor", "units": {"% viability": "%"}, "values": [
      {"smiles": "COc1ccc(-n2c(SCc3nc(-c4ccc(C)cc4)no3)nnc2-c2ccncc2)cc1", "note": "[ONC0002351, jw74]", "% viability": 61.82},
      {"smiles": "NC1=NCCN1CC(=O)O", "note": "[ONC0005544, cyclocreatine]", "% viability": 121.1},
      {"smiles": "CC1(C)O[C@@H]2C[C@H]3[C@@H]4CCC5=CC(=O)C=C[C@]5(C)[C@@]4(F)[C@@H](O)C[C@]3(C)[C@]2(C(=O)CO)O1", "note": "[ONC0000530, triamcinolone acetonide]", "% viability": 72.73},
      {"smiles": "CC1(C)[C@H]2CC[C@@]1(C)[C@H](O)[C@@H]2O", "note": "[ONC0003634, exoexo23camphanediol]", "% viability": 67.52},
      {"smiles": "N=C(N)SCc1ccc(B(O)O)cc1", "note": "[ONC0001888, bc11]", "% viability": 64.35},
      {"smiles": "O=C(O)CCCc1ccccc1", "note": "[ONC0003306, sodium phenylbutyrate]", "% viability": 55.47},
      {"smiles": "CN(C)[C@@H]1C(=O)C(C(N)=O)C(=O)[C@@]2(O)C(=O)C3C(=O)c4c(O)cccc4[C@@](C)(O)[C@H]3C[C@@H]12", "note": "(stereo partly shown) [ONC0000563, tetracycline hydrochloride]", "% viability": 113.1},
      {"smiles": "CCOC(=O)C12CC1/C(=N\\O)c1ccccc1O2", "note": "(stereo not shown) [ONC0001852, cpccoet]", "% viability": 85.9},
      {"smiles": "O=C(O)COC(=O)Cc1ccccc1Nc1c(Cl)cccc1Cl", "note": "[ONC0000439, aceclofenac]", "% viability": 78.86},
      {"smiles": "CC(C)Oc1ccc(C(=O)N[C@H](CNC(=O)CN(C)C)Cc2ccc(-c3cn4cccc([C@H](C)O)c4n3)cc2)cc1Cl", "note": "[ONC0005504, gsk923295]", "% viability": 90.87},
      {"smiles": "CCOC(=O)C1=C(C)NC(c2ccccc2)=C(C(=O)OCc2ccc([N+](=O)[O-])cc2)C1C#Cc1ccccc1", "note": "(stereo not shown) [ONC0001718, mrs1334]", "% viability": 82.41},
      {"smiles": "OC1(c2ccc(Cl)c(C(F)(F)F)c2)CCN(CCCC(c2ccc(F)cc2)c2ccc(F)cc2)CC1", "note": "[ONC0004118, penfluridol]", "% viability": 98.09},
      {"smiles": "c1ccc(CN2CCC3(CCc4ccccc43)CC2)cc1", "note": "[ONC0002495, l693403]", "% viability": 125.9},
      {"smiles": "CC(CC(c1ccccc1)c1ccccc1)NC(C)(C)C", "note": "(stereo not shown) [ONC0005592, terodiline]", "% viability": 109.9},
      {"smiles": "CCN1CCN(c2cc3c(cc2F)c(=O)c(C(=O)O)cn3C2CC2)CC1", "note": "[ONC0002394, enrofloxacin]", "% viability": 99.08},
      {"smiles": "O=C1C2CC3CC1CC(O)(C3)C2", "note": "[ONC0005367, idramantone]", "% viability": 117.2},
      {"smiles": "FC(F)c1nc2ccccc2n1-c1nc(N2CCOCC2)nc(N2CCOCC2)n1", "note": "[ONC0004685, zstk474]", "% viability": 110.1},
      {"smiles": "CCn1c(N)c(C(=O)NC)c(=O)c2ccc(C#C[C@@](C)(O)COC)nc21", "note": "[ONC0005244, sar131675]", "% viability": 151.7},
      {"smiles": "COc1cc(NS(C)(=O)=O)ccc1Nc1c2ccccc2nc2ccccc12", "note": "[ONC0002819, amsacrine]", "% viability": 122.1},
      {"smiles": "CCN1CCC[C@H]1CNC(=O)c1c(OC)ccc(Br)c1OC", "note": "[ONC0001453, remoxipride]", "% viability": 82.81},
      {"smiles": "CC(C)C(C(=O)Nc1nccs1)c1ccc(Cl)cc1", "note": "(stereo not shown) [ONC0004465, 4cmtb]", "% viability": 150.7},
      {"smiles": "NC(=O)CN1C=CCC(C(N)=O)=C1", "note": "[ONC0003832, caricotamide]", "% viability": 57.08},
      {"smiles": "COC(=O)N[C@H](C(=O)N1CCC[C@H]1C(=O)Nc1ccc([C@@H]2CC[C@@H](c3ccc(NC(=O)[C@@H]4CCCN4C(=O)[C@@H](NC(=O)OC)C(C)C)cc3)N2c2ccc(C(C)(C)C)cc2)cc1)C(C)C", "note": "[ONC0002011, ombitasvir]", "% viability": 108.9},
      {"smiles": "Cc1nnc(NS(=O)(=O)c2ccc(N)cc2)s1", "note": "[ONC0000591, sulfamethizole]", "% viability": 101.6},
      {"smiles": "N=C(N)S/C=C\\C(=O)O", "note": "[ONC0004454, zapa]", "% viability": 108.4},
      {"smiles": "COc1ccc(O)c(C(C)(C)C)c1", "note": "[ONC0002424, butylated hydroxyanisole]", "% viability": 103.3},
      {"smiles": "CCCC[C@H](NC(C)=O)C(=O)N[C@H]1CC(=O)NCCCC[C@@H](C(=O)O)NC(=O)[C@H](Cc2c[nH]c3ccccc23)NC(=O)[C@H](CCCN=C(N)N)NC(=O)[C@@H](Cc2ccccc2)NC(=O)[C@H](Cc2cnc[nH]2)NC1=O", "note": "[ONC0002156, bremelanotide acetate]", "% viability": 73.73},
      {"smiles": "Cc1cc(NCCO)nc(-c2ccc(Br)cc2)n1", "note": "[ONC0001665, as1269574]", "% viability": 73.35},
      {"smiles": "CC1CC(OC(=O)C(O)c2ccccc2)CC(C)(C)N1C", "note": "(stereo not shown) [ONC0002943, eucatropine]", "% viability": 67.69},
      {"smiles": "CCCCc1nc(Cl)c(C(=O)O)n1Cc1ccc(-c2ccccc2-c2nn[nH]n2)cc1", "note": "[ONC0003844, carboxylosartan]", "% viability": 82},
      {"smiles": "C=C1c2cccc(O)c2C(=O)C2C(=O)[C@]3(O)C(=O)C(C(N)=O)C(=O)[C@@H](N(C)C)[C@@H]3[C@@H](O)[C@H]12", "note": "(stereo partly shown) [ONC0000687, methacycline hydrochloride]", "% viability": 124.6},
      {"smiles": "C[C@H]1CN(C[C@H](Cc2ccccc2)C(=O)NCC(=O)O)CC[C@@]1(C)c1cccc(O)c1", "note": "[ONC0001300, alvimopan monohydrate]", "% viability": 69.48},
      {"smiles": "COc1ccccc1S(=O)(=O)Nc1ccc2c(c1)CN(C)C(=O)N2", "note": "[ONC0004513, pfi1pf6405761]", "% viability": 60.81},
      {"smiles": "c1cc2c(cc1C1CCCCC1)c1c3n2CCNC3CCC1", "note": "(stereo not shown) [ONC0002712, tetrindole]", "% viability": 57.5},
      {"smiles": "CC(C)[C@](O)(c1ccc2cc(OC(F)F)c(OC(F)F)cc2c1)c1c[nH]nn1", "note": "[ONC0001797, seviteronel]", "% viability": 82.26},
      {"smiles": "COC1CCN(c2cccc(-c3cc(NC(C)=O)nc(-n4nc(C)cc4C)n3)n2)CC1", "note": "[ONC0001757, tcg1004]", "% viability": 57.51},
      {"smiles": "Cc1cc(Nc2ncnc3ccc(-c4ccc(CNCCS(C)(=O)=O)o4)cc23)ccc1Oc1ccn2ncnc2c1", "note": "[ONC0004383, her2 inhibitor 1]", "% viability": 102.4},
      {"smiles": "CO[C@@]12[C@H](COC(N)=O)C3=C(C(=O)C(C)=C(N)C3=O)N1C[C@@H]1N[C@@H]12", "note": "[ONC0003261, mitomycin]", "% viability": 74.56},
      {"smiles": "CC(C(=O)O)c1ccc(N2Cc3ccccc3C2=O)cc1", "note": "(stereo not shown) [ONC0000383, indoprofen]", "% viability": 86.36},
      {"smiles": "Cc1nc(C#Cc2ccnc(Cl)c2)c(C)n1-c1ccc(F)cc1", "note": "[ONC0002088, basimglurant]", "% viability": 78.59},
      {"smiles": "O=C(c1cn(Cc2cncn2Cc2ccc(Br)cc2)cc1-c1cccc2ccccc12)N1CCOCC1", "note": "[ONC0005028, lb42708]", "% viability": 105.6},
      {"smiles": "CCN1CCN(C(=O)N[C@@H](C(=O)N[C@@H]2C(=O)N3C(C(=O)O)=C(CSc4nnnn4C)CS[C@H]23)c2ccc(O)cc2)C(=O)C1=O", "note": "[ONC0000570, cefoperazone]", "% viability": 118.8},
      {"smiles": "CC(C)(Cc1ccc2ccccc2c1)NC[C@@H](O)COc1cccc(Cl)c1C#N", "note": "[ONC0005073, nps2143 sb262470]", "% viability": 64.57},
      {"smiles": "CN(C)CCOc1ccc(/C(=C(/CCCl)c2ccccc2)c2ccccc2)cc1", "note": "[ONC0004127, toremifene citrate]", "% viability": 115.5},
      {"smiles": "CCCN(CCC)C(=O)C1=Cc2ccc(-c3ccc(C(=O)N4CCCC4)cc3)cc2N=C(N)C1", "note": "[ONC0002257, motolimod]", "% viability": 108.9},
      {"smiles": "Cc1ccc(Cl)c(Nc2ccccc2C(=O)O)c1Cl", "note": "[ONC0000446, meclofenamate sodium]", "% viability": 65.97},
      {"smiles": "C=C1/C(=C\\C=C2/CCC[C@]3(C)[C@@H]([C@H](C)/C=C/[C@@H](O)C4CC4)CC[C@@H]23)C[C@@H](O)C[C@@H]1O", "note": "[ONC0001143, calcipotriol]", "% viability": 97.63},
      {"smiles": "CNC(=O)[C@H](Cc1c[nH]c2ccccc12)NC(=O)[C@@H](CC(=O)NO)CC(C)C", "note": "[ONC0005060, ilomastat gm6001 galardin]", "% viability": 74.22},
      {"smiles": "N=C1NC(=O)N2CC12", "note": "(stereo not shown) [ONC0005293, imexon]", "% viability": 80.33},
      {"smiles": "O=C(NCC(=O)N1CCCCC1)Nc1ccc2nnsc2c1", "note": "[ONC0000180, unc2327]", "% viability": 77.49},
      {"smiles": "Oc1ccc(OCc2ccccc2)cc1", "note": "[ONC0002824, monobenzone]", "% viability": 101.4},
      {"smiles": "Cc1ccc(N2CCN(CCC3NC(=O)c4ccccc43)CC2)cc1C", "note": "(stereo not shown) [ONC0001561, pd168568]", "% viability": 92.99},
      {"smiles": "Cc1nc(N)sc1CCN", "note": "[ONC0002698, amthamine]", "% viability": 64.43},
      {"smiles": "CNC(=O)c1cc(COc2nnc(Nc3ccc(Cl)cc3)c3ccoc23)ccn1", "note": "[ONC0004937, telatinib bay 579352]", "% viability": 72.8},
      {"smiles": "COc1cc2nccc(Oc3ccc(NC(=O)C4(C(=O)Nc5ccc(F)cc5)CC4)cc3)c2cc1OC", "note": "[ONC0001709, cabozantinib]", "% viability": 86.52},
      {"smiles": "CCN(CC)Cc1nccn1-c1ccc([N+](=O)[O-])cc1C(=O)c1ccccc1Cl", "note": "[ONC0003309, nizofenone fumarate]", "% viability": 77.96},
      {"smiles": "Cc1cc(O)c2c(=O)c3c(O)cc(O)c4c5c(O)cc(O)c6c(=O)c7c(O)cc(C)c8c1c2c(c34)c(c78)c65", "note": "[ONC0003458, hypericin]", "% viability": 66.52},
      {"smiles": "O=C(O)/C=C/c1ccc(Cn2ccnc2)cc1", "note": "[ONC0000811, ozagrel]", "% viability": 75.33},
      {"smiles": "Fc1cccc(/C=N/N=C/c2cccc(F)c2)c1", "note": "[ONC0002586, dfb]", "% viability": 79.39},
      {"smiles": "CC(C)(N)c1nc(-c2ccc(OC(F)(F)F)cc2)c[nH]1", "note": "[ONC0000402, pf04885614]", "% viability": 73.02},
      {"smiles": "Cc1cc([C@@H](C)Nc2ccccc2C(=O)O)c2nc(N3CCOCC3)cc(=O)n2c1", "note": "[ONC0001417, azd6482]", "% viability": 66.22}
    ]}
  ]
}
